The test deals with fatty acid transport protein FAT/CD36 (rat (endogenous in rat heart)) (UniProt Q07969). The test is described as follows: co-IP; FAT/CD36 immunoprecipitated with anti-CD36 (sc-9154) and protein A agarose overnight at 4°C from rat heart whole tissue and membrane fraction lysates (1000 µg protein); washes in PBS with 1% NP-40, then PBS; OGT immunoblot (DM-17); hearts perfused with glucosamine and O-GlcNAcase inhibition. A general note: A western blot detects proteins with antibodies after separation by electrophoresis.

Sequences of proteins named here, by UniProt entry; tags and fusion partners are left off.
UniProt Q07969: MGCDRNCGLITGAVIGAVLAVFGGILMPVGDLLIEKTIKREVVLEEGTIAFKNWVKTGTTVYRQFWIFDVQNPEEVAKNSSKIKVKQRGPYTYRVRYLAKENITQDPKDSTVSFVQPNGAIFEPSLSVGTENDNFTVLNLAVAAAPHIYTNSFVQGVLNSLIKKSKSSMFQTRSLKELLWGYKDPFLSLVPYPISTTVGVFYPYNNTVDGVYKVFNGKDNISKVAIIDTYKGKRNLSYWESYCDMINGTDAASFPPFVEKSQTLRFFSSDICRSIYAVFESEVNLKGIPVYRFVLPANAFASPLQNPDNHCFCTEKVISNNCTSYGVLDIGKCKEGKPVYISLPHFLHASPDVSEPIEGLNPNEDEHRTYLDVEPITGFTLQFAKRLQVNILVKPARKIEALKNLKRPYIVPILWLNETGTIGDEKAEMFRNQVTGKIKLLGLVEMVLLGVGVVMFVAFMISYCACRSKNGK

Results are given in words; binding and its absence hold for the method and conditions named. Binding seen in cells or lysates may run through a third protein. Some binding calls cover weakened binding; strength is not graded here.

B1: O-GlcNAc transferase (OGT) (enzyme, UniProt P56558 1-1036)
chain: MASSVGNVADSTGLAELAHREYQAGDFEAAERHCMQLWRQEPDNTGVLLLLSSIHFQCRRLDRSAHFSTLAIKQNPLLAEAYSNLGNVYKERGQLQEAIEHYRHALRLKPDFIDGYINLAAALVAAGDMEGAVQAYVSALQYNPDLYCVRSDLGNLLKALGRLEEAKACYLKAIETQPNFAVAWSNLGCVFNAQGEIWLAIHHFEKAVTLDPNFLDAYINLGNVLKEARIFDRAVAAYLRALSLSPNHAVVHGNLACVYYEQGLIDLAIDTYRRAIELQPHFPDAYCNLANALKEKGSVAEAEDCYNTALRLCPTHADSLNNLANIKREQGNIEEAVRLYRKALEVFPEFAAAHSNLASVLQQQGKLQEALMHYKEAIRISPTFADAYSNMGNTLKEMQDVQGALQCYTRAIQINPAFADAHSNLASIHKDSGNIPEAIASYRTALKLKPDFPDAYCNLAHCLQIVCDWTDYDERMKKLVSIVAEQLEKNRLPSVHPHHSMLYPLSHGFRKAIAERHGNLCLDKINVLHKPPYEHPKDLKLSDGRLRVGYVSSDFGNHPTSHLMQSIPGMHNPDKFEVFCYALSPDDGTNFRVKVMAEANHFIDLSQIPCNGKAADRIHQDGIHILVNMNGYTKGARNELFALRPAPIQAMWLGYPGTSGALFMDYIITDQETSPAEVAEQYSEKLAYMPHTFFIGDHANMFPHLKKKAVIDFKSNGHIYDNRIVLNGIDLKAFLDSLPDVKIVKMKCPDGGDNADTTNTALNMPVIPMNTIAEAVIEMINRGQIQITINGFSISNGLATTQINNKAATGEEVPRTIIVTTRSQYGLPEDAIVYCNFNQLYKIDPSTLQMGANILKRVPNSVLWLLRFPAVGEPNIQQYAQNMGLPQNRIIFSPVAPKEEHVRRGQLADVCLDTPLCNGHTTGMDVLWAGTPMVTMPGETLASRVAASQLTCLGCLELIAKSRQEYEDIAVKLGTDLEYLKKIRGKVWKQRISSPLFNTKQYTMELERLYLQMWEHYAAGNKPDHMIKPVEVTESA
Turning to B1, the binding entry is recorded as “binds”.

The values above are taken from publication PMC3073970.
